Source: PMC8340474
No constants are given. Whether binding was seen depends on the method and setting. In cells and extracts the contact can be indirect. Some entries that bind do so weakly or less than the wild type.

Sequences of proteins named here, by UniProt entry; tags and fusion partners are left off.
UniProt P46937: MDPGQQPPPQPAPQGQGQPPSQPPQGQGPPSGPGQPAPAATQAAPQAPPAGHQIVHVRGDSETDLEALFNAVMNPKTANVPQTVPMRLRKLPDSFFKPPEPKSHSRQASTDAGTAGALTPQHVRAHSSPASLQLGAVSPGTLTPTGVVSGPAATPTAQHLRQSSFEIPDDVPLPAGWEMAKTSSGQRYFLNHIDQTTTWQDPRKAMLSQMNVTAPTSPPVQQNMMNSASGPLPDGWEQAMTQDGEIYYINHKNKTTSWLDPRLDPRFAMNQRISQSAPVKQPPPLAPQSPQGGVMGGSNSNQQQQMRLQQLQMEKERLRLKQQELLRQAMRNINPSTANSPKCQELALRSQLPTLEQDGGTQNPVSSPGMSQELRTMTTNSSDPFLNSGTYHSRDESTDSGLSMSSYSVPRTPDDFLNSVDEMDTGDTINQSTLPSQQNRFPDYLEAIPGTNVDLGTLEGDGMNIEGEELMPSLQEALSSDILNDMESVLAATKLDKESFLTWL

Target: Yes-associated protein 1 (YAP1) (human (in human PC cell lines; endogenous or transfected not stated)) (UniProt P46937)
Test: co-IP; immunoprecipitation from PC cells; which protein was precipitated and which cell line are not told; performed as previously described (ref. 17)

B1: tripartite motif-29 (TRIM29) (protein, UniProt Q14134 1-588)
chain: MEAADASRSNGSSPEARDARSPSGPSGSLENGTKADGKDAKTTNGHGGEAAEGKSLGSALKPGEGRSALFAGNEWRRPIIQFVESGDDKNSNYFSMDSMEGKRSPYAGLQLGAAKKPPVTFAEKGELRKSIFSESRKPTVSIMEPGETRRNSYPRADTGLFSRSKSGSEEVLCDSCIGNKQKAVKSCLVCQASFCELHLKPHLEGAAFRDHQLLEPIRDFEARKCPVHGKTMELFCQTDQTCICYLCMFQEHKNHSTVTVEEAKAEKETELSLQKEQLQLKIIEIEDEAEKWQKEKDRIKSFTTNEKAILEQNFRDLVRDLEKQKEEVRAALEQREQDAVDQVKVIMDALDERAKVLHEDKQTREQLHSISDSVLFLQEFGALMSNYSLPPPLPTYHVLLEGEGLGQSLGNFKDDLLNVCMRHVEKMCKADLSRNFIERNHMENGGDHRYVNNYTNSFGGEWSAPDTMKRYSMYLTPKGGVRTSYQPSSPGRFTKETTQKNFNNLYGTKGNYTSRVWEYSSSIQNSDNDLPVVQGSSSFSLKGYPSLMRSQSPKAQPQTWKSGKQTMLSHYRPFYVNKGNGIGSNEAP
binding: binds
